Earlier results in patent US20220387268A1, “OIL-IN-WATER MACROEMULSION” (SYMRISE AG, priority 2019, published 2022).
For at least one compound, name, drawing or mass did not settle the structure.

Settings: cited from earlier work

**Q.** Which HLB does the source give for `CCCCCCCCCCCCCCCC[N+](C)(C)C.[Cl-]` [Cetrimonium Chloride] here?
**A.** 10
